This test concerns BDF1 mice, B16 melanoma ip, median survival T/C. The test can be described thus: NCI In Vivo Anticancer Drug Screen. Data for tumor model B16 Melanoma (intraperitoneal) in B6D2F1 (BDF1) mice. As to conditions: T/C endpoint: median survival time, higher T/C = longer survival. As to the method:
The antitumor activity of compounds was measured in mice bearing transplantable tumors. Survival or tumor size were measured and the results are expressed as the measurement made in the treated group (T) divided by the measurement made in the vehicle treated control group (C). The tumor model used in this assay is B16 Melanoma (intraperitoneal) in B6D2F1 (BDF1) mice

Setting [1] is: dose: 25.0 mg/kg/injection, schedule: Q01DX009 (ip), vehicle: saline with Tween-80.
Setting [2] is: dose: 50.0 mg/kg/injection, schedule: Q01DX009 (ip), vehicle: saline with Tween-80.
The mark [3] stands for this setting: dose: 100.0 mg/kg/injection, schedule: Q01DX009 (ip), vehicle: saline with Tween-80.
Setting [4] is: dose: 50.0 mg/kg/injection, schedule: Q01DX009 (ip), vehicle: Klucel (hydroxypropylcellulose) (HPC).
The mark [5] stands for this setting: dose: 100.0 mg/kg/injection, schedule: Q01DX009 (ip), vehicle: Klucel (hydroxypropylcellulose) (HPC).
[6] abbreviates: dose: 200.0 mg/kg/injection, schedule: Q01DX009 (ip), vehicle: Klucel (hydroxypropylcellulose) (HPC).
The mark [7] stands for this setting: dose: 6.25 mg/kg/injection, schedule: Q01DX009 (ip), vehicle: Klucel (hydroxypropylcellulose) (HPC).
Setting [8] is: dose: 12.5 mg/kg/injection, schedule: Q01DX009 (ip), vehicle: Klucel (hydroxypropylcellulose) (HPC).
The mark [9] stands for this setting: dose: 25.0 mg/kg/injection, schedule: Q01DX009 (ip), vehicle: Klucel (hydroxypropylcellulose) (HPC).

The list is a part of this screen's results and no random one: it gathers some chemical classes. Not every dose and run of a compound is shown. T/C gives the treated animals as a percentage of the vehicle group. Some entries give survivors of the animals treated and no T/C: the source holds a T/C of zero for them, seemingly a mark for toxic or unscored doses. Some survivor counts are full or nearly so, which does not show that the dose was tolerated: survival well below the control is almost never listed, so the zero probably covers shortened survival too. Counts of survivors are from the toxicity check (mostly the fifth day) where no day follows; animals may have died later. Schedules are NCI's codes, read here as Q, the interval in days (D) or hours (H), X, the number of doses. Some doses were run more than once; the results are listed from low to high. For survival time, this PubChem deposit counts one and a half times the control or more as active, and values a quarter to a half above the control carry no call in these data; other NCI protocols may use other cut-offs. Some T/C values are followed by the survivors on the day toxicity was checked, most often the fifth; where neither a count nor a note follows, no animal had died by that day.

With `N=C(N[N+](=O)[O-])N(CCN1CCN=C1N[N+](=O)[O-])N=O`, the T/C under setting [1] was 100 % of control, the T/C under setting [2] was 98 % of control and the T/C under setting [3] is 93 % of control.
`ClC1CSC1`: the T/C is 110 % of control (dose: 25.0 mg/kg/injection, schedule: Q01DX009 (ip), vehicle: suspension in saline); 117 % of control (dose: 50.0 mg/kg/injection, schedule: Q01DX009 (ip), vehicle: suspension in saline); 110 % of control (dose: 100.0 mg/kg/injection, schedule: Q01DX009 (ip), vehicle: suspension in saline); 132 % of control (dose: 200.0 mg/kg/injection, schedule: Q01DX009 (ip), vehicle: suspension in saline).
As to `COc1cc2c(c3oc4cccc(O)c4c(=O)c13)[C@@H]1C=CO[C@@H]1O2`, the T/C runs as follows: (dose: 3.75 mg/kg/injection, schedule: Q01DX009 (ip), vehicle: Klucel (hydroxypropylcellulose) (HPC)) 113 % of control; (dose: 4.0 mg/kg/injection, schedule: Q01DX009 (ip), vehicle: saline with Tween-80) 101 % of control; (dose: 7.5 mg/kg/injection, schedule: Q01DX009 (ip), vehicle: Klucel (hydroxypropylcellulose) (HPC)) 124 % of control; (dose: 8.0 mg/kg/injection, schedule: Q01DX009 (ip), vehicle: saline with Tween-80) 102 % of control [9 of 10 alive]; (dose: 15.0 mg/kg/injection, schedule: Q01DX009 (ip), vehicle: Klucel (hydroxypropylcellulose) (HPC)) 129 % of control; (dose: 16.0 mg/kg/injection, schedule: Q01DX009 (ip), vehicle: saline with Tween-80) 122 % of control. Moreover, the T/C by setting is: (dose: 30.0 mg/kg/injection, schedule: Q01DX009 (ip), vehicle: Klucel (hydroxypropylcellulose) (HPC)) 146 % of control; (dose: 32.0 mg/kg/injection, schedule: Q01DX009 (ip), vehicle: saline with Tween-80) 125 % of control; (dose: 64.0 mg/kg/injection, schedule: Q01DX009 (ip), vehicle: saline with Tween-80) 145 % of control; (dose: 128.0 mg/kg/injection, schedule: Q01DX009 (ip), vehicle: saline with Tween-80) 93 % of control. The survivor count (dose: 60.0 mg/kg/injection, schedule: Q01DX009 (ip), vehicle: Klucel (hydroxypropylcellulose) (HPC)) is listed as 10 of 10.
As to `CC[C@@H](C)[C@@H]1NC(=O)/C(=C(\C)O)C1=O.c1ccc(CNCCNCc2ccccc2)cc1`, the T/C was 107 % of control under setting [4]; 107 % of control under setting [5]; 95 % of control (dose: 100.0 mg/kg/injection, schedule: Q01DX009 (ip), vehicle: saline). Besides, the survivor count was 1 of 10 under setting [6]; 2 of 6 (dose: 200.0 mg/kg/injection, schedule: Q01DX009 (ip), vehicle: saline); 0 of 6 (dose: 400.0 mg/kg/injection, schedule: Q01DX009 (ip), vehicle: saline).
For the molecule `CC1(C)CN1P(=O)(Nc1ccccn1)N1CC1(C)C` (configuration not stated), the T/C runs as follows: under setting [1], 102 % of control; under setting [2], 94 % of control; under setting [3], 105 % of control; (dose: 200.0 mg/kg/injection, schedule: Q01DX009 (ip), vehicle: saline with Tween-80) 149 % of control.
In the case of `Cc1ccc(CNCCCl)cc1`, the T/C was 94 % of control (dose: 25.0 mg/kg/injection, schedule: Q04DX003 (ip), vehicle: Klucel (hydroxypropylcellulose) (HPC)); 105 % of control (dose: 50.0 mg/kg/injection, schedule: Q04DX003 (ip), vehicle: Klucel (hydroxypropylcellulose) (HPC)); 94 % of control (dose: 100.0 mg/kg/injection, schedule: Q04DX003 (ip), vehicle: Klucel (hydroxypropylcellulose) (HPC)); 107 % of control (dose: 200.0 mg/kg/injection, schedule: Q04DX003 (ip), vehicle: Klucel (hydroxypropylcellulose) (HPC)).
Regarding `O=[N+]([O-])c1cccc(Oc2ccc([N+](=O)[O-])cc2[N+](=O)[O-])c1`, the T/C is, setting by setting: under setting [4], 116 % of control; under setting [5], 110 % of control; under setting [6], 104 % of control [9 of 10 alive].
`NC(=O)Nc1ccc(N(CCCl)CCCl)cc1`: the T/C by setting is: (dose: 1.56 mg/kg/injection, schedule: Q01DX009 (ip), vehicle: Klucel (hydroxypropylcellulose) (HPC)) 104 and 110 % of control; (dose: 3.12 mg/kg/injection, schedule: Q01DX009 (ip), vehicle: Klucel (hydroxypropylcellulose) (HPC)) 108, 127, 133 % of control; under setting [7], 124, 142 [9 of 10 alive], 145 % of control; under setting [8], 147, 153, 191 % of control. Moreover, the survivor count runs as follows: under setting [9], 10 of 10 and 8 of 8; under setting [4], 8 of 8.
For the molecule `C[N+](C)(C)c1ccccc1.F[P-](F)(F)(F)(F)F`, the T/C under setting [7] is 100 % of control [8 of 10 alive], the T/C under setting [8] was 103 % of control and the T/C under setting [9] was 100 % of control [9 of 10 alive].
On to `ClC1(Cl)SC(Cl)(Cl)C(Cl)(Cl)C1(Cl)Cl`, for which the T/C under setting [7] is 100 % of control [9 of 10 alive], the T/C under setting [8] was 102 % of control [9 of 10 alive], the T/C under setting [9] is 94 % of control [9 of 10 alive] and the T/C under setting [4] is 100 % of control [9 of 10 alive]. For the same molecule, the survivor count under setting [5] is given as 7 of 10.
`CC(=O)SCC(Cl)Cl`: the T/C by setting is: under setting [1], 100 % of control; under setting [2], 104 % of control; under setting [3], 116 % of control.

For the origin of these results see PubChem BioAssay AID192 (DTP/NCI, 2004).
